These are yes or no findings as the source states them, for the method shown. In cells and extracts the contact can be indirect. Some results given as binding are weak or reduced against the parent protein; the word gives no strength. Sequences can lack the tags named with a protein.
Target: T1, FLAG-MSL1 (D. melanogaster) (UniProt P50535)
T1 sequence: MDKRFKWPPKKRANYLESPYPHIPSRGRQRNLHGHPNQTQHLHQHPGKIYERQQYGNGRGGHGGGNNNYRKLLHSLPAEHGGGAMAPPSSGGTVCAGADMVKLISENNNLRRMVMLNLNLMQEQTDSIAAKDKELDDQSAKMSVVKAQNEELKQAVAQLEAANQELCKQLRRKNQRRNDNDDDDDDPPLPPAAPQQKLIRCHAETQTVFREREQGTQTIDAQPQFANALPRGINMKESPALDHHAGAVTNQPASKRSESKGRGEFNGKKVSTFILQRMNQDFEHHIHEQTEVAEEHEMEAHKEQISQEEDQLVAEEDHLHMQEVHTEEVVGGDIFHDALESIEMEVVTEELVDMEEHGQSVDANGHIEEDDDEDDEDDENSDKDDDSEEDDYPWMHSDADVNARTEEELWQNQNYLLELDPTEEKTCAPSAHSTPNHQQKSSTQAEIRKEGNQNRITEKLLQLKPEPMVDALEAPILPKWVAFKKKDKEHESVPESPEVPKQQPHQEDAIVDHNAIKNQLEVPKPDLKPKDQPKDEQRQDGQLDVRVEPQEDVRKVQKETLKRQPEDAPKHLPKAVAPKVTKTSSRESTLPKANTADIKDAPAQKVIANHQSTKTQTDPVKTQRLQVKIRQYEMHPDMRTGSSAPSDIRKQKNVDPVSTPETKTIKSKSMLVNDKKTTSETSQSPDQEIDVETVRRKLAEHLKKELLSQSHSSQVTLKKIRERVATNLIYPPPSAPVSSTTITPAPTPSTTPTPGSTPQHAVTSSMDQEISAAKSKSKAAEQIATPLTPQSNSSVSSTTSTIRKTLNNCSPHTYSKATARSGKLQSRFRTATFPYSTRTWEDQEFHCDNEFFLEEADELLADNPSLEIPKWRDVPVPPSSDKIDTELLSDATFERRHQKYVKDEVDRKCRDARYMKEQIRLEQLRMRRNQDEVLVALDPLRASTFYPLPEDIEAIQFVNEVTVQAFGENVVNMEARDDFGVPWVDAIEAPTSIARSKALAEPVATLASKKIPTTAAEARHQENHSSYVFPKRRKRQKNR
Test: co-IP; Sf21 extracts with JJ-complex (FLAG-JIL-1/untagged JASPer) and with FLAG-MSL1/untagged MSL2 and FLAG-MSL3 mixed to similar concentrations; IP with antibodies specific for the bait (MSL1 or JIL-1)

Protein sequences, listed by entry. Tags and fused reporters are not part of them.
UniProt P50536: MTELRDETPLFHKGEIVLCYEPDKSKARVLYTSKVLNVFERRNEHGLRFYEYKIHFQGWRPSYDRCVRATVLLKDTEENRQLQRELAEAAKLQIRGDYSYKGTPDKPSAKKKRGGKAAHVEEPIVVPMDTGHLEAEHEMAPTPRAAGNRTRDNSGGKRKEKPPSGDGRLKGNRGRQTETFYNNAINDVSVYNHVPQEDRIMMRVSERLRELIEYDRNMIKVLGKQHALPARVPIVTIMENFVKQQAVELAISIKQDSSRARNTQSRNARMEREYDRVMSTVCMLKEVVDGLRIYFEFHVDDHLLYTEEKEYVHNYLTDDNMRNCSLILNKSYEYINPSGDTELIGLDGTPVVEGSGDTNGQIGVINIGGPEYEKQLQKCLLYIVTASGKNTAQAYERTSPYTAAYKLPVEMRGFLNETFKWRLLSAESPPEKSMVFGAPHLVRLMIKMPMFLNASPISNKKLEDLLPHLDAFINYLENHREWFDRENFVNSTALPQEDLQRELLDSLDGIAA

binding: binds
Substance: FLAG-MSL3 (from UniProt P50536 1-512)

From PMC6877644
